Results on one compound are retold here after PMC7191908, “Bacterial ι-carbonic anhydrase: a new active class of carbonic anhydrase identified in the genome of the Gram-negative bacterium Burkholderia territorii” (Journal of Enzyme Inhibition and Medicinal Chemistry, 2020).

The target in the assay is BteCAι. As to conditions: CO2 substrate 1.7-17 mM; Zn(II) enzyme; 20 mM Tris (pH 7.5 in Methods, 8.3 in Table 1), 20 mM NaClO4; 25 C; 15 min preincubation at room temperature; Cheng-Prusoff.

Compound `CC(=O)Nc1nnc(S(N)(=O)=O)s1` [acetazolamide] had a Ki of 64.9 nM.

What is called Ki is a measure of affinity in units of concentration, obtained from inhibition or displacement. A lower Ki goes with a stronger hold on the target.
